Measured values taken from patent US12492164B2, “Fluorine substituted cyclohexene analogues of gamma-aminobutyric acid (GABA)” (Northwestern University, priority 2019, dated 2025).
Where “and” joins values, the source holds several entries; their conditions need not be identical. Equal values may be shown once. Where a name gives a salt, the structure may show the parent alone. At least one structure is not confirmed: it was looked up by name or label, or the drawing left a doubt.

Legend:
hOAT [1] = target: T1, hOAT (Homo sapiens, UniProt P04181); experiment: Coupled enzyme assay, time-dependent inactivation of hOAT; type: biochemical; settings: ratio of kinact/KI versus 7
T1 construct: made in house
T1 sequence (P04181 26-439): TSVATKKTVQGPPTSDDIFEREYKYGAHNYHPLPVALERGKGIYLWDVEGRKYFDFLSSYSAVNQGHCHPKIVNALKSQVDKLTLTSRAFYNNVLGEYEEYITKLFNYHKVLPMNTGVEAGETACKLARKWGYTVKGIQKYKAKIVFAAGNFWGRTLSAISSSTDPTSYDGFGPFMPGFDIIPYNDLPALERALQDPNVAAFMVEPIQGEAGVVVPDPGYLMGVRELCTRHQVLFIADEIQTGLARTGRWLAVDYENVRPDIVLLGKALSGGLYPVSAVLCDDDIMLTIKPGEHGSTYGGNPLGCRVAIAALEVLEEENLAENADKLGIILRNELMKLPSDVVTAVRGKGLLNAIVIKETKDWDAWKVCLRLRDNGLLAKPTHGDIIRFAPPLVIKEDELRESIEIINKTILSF
Method: Kinetic Studies of Fluorine-Substituted Cyclohexene Analogues.
hOAT and PYCR1 were expressed, grown, and purified according to literature procedures.4, 5 GABA-AT was isolated from pig brains and purified according to a literature procedure.6 Coupled enzyme assays for GABA-AT, hOAT, Ala-AT, and Asp-AT were carried out according to previous procedures.7, 8

hOAT [2] = target: T1, hOAT; experiment: Intact protein mass spectrometry of hOAT modified by inactivator; settings: for Experimental mass of modified hOAT: hOAT inactivated by compound, hydrochloride; for Experimental mass difference: modified versus native hOAT
hOAT [3] = target: T1, hOAT; experiment: Partition ratio experiment (titration of hOAT with inactivator); type: biochemical; settings: for fraction hydrolyzed to metabolite, turnover (pathway b) / fraction leading to inactivation (pathway a): according to the partition ratio; for partition ratio: turnover number minus one, extrapolated from titration of hOAT
hOAT [4] = target: T1, hOAT; experiment: Time-dependent dialysis of inactivated hOAT; type: biochemical; settings: 48 h of dialysis; hOAT inactivated by 4-25 equiv of 8 or 0.6-2.0 equiv of 9
[5] = system: alanine aminotransferase (Ala-AT); experiment: Coupled enzyme assay for Ala-AT; type: biochemical; settings: high concentrations (5-20 mM)
[6] = system: aspartate aminotransferase (Asp-AT); experiment: Coupled enzyme assay for Asp-AT; type: biochemical; settings: high concentrations (5-20 mM)
hOAT [7] = target: T1, hOAT; experiment: Fluoride ion release (fluoride ion selective electrode); type: biochemical; settings: for F− Detected / F− Detected Ave: Sample, 2.0 μM fluoride ion added to each sample; for F− Detected: Trials 1-3, hydrochloride; for Fluoride ions released per active site: excess inactivator, absence of α-KG, hOAT 0.37 μM monomer; for F− Release: sample minus control

| SMILES | times more efficient as an inactivator of hOAT than 7 (hOAT [1]) [times] | Experimental mass of modified hOAT (hOAT [2]) [Da] | Experimental mass difference (hOAT [2]) [Da] | fraction hydrolyzed to metabolite, turnover (pathway b) (hOAT [3]) [%] | fraction leading to inactivation (pathway a) (hOAT [3]) [%] | partition ratio (hOAT [3]) | return of enzyme activity after dialysis (hOAT [4]) | inhibitory activity against Ala-AT [5] | inhibitory activity against Asp-AT [6] | F− Detected (hOAT [7]) | F− Detected Ave (hOAT [7]) | Fluoride ions released per active site (hOAT [7]) [equiv] | F− Release (hOAT [7]) [µM] |
| --- | --- | --- | --- | --- | --- | --- | --- | --- | --- | --- | --- | --- | --- |
| N[C@H]1C=C(C(=O)O)CCC1(F)F [Compound 9, (S)-3-Amino-4,4-difluorocyclohex-1-ene-1-carboxylic acid hydrochloride] | 23 | 46504.66±0.13 | 366.34 | 44 | 56 | 0.8 | No enzyme activity was recovered | little or no inhibitory activities | little or no inhibitory activities | 3.19 µM and 3.28 µM and 3.18 µM | Sample: 3.22 ± 0.045 μM | 2.9 | 1.06 |
| N[C@H]1C=C(C(=O)O)CC[C@@H]1F [Compound 8, (3S,4S)-3-Amino-4-fluorocyclohex-1-ene-1-carboxylic acid hydrochloride] | – | 46506.08±0.21 | 369.29 | 96 | 4 | 22.0 | No enzyme activity was recovered | – | – | 10.54 µM and 10.50 µM and 10.59 µM | Sample: 10.54 ± 0.037 μM | 22.7 | 8.39 |
